Source: US8455421B2, “Compositions and methods for the removal of chewing gum residues from substrates” (Expelliere Int Ltd, priority 2008, dated 2013)

Experiments:
[1] = Chewing gum film treated with laccase, [emim][docusate] and mediator; gel permeation chromatography; conditions: laccase LTV 0.4 mg/mL, 20 wt % [emim][docusate], citric acid buffer pH 4.5, mediator 5 mM; for Residue fragments, molecular weight as percentage of initial molecular weight: after 72 h, GPC
[2] = Chewing gum residue on concrete slab treated with removal composition and oxidising reagents; conditions: with oxygen source (hydrogen peroxide and/or sodium perborate), about 10 minutes contact

Compound | Observations after 72 h [1] | Residue fragments, molecular weight as percentage of initial molecular weight [1] | further results
CCn1c(=NN=c2sc3cc(S(=O)(=O)O)ccc3n2CC)sc2cc(S(=O)(=O)O)ccc21 [ABTS] | Chewing gum fully dissolved in water, no residue to |  | 
OCc1ccc(O)cc1 [p-hydroxybenzyl alcohol] |  | 60% and 45% and 39% and 30% | 
Oc1ccccc1-c1ccccc1 [2-hydroxybiphenyl] |  | 54% and 45% | 
choline diisooctylsulfosuccinate |  |  | Removal of chewing gum residue after oxidative treatment [2]: easily removed from the surface of the concrete slab using a wire brush, or by rinsing with water
CC1(C)CCCC(C)(C)N1[O] [TEMPO] | Chewing gum fully dissolved in water, no residue to |  | 
c1ccc2c(c1)Nc1ccccc1S2 [10-H-phenothiazine] | Chewing gum fully detached from glass surface. |  | 

Several values for one entry are separate records, joined by “and”; a condition that tells them apart may be missing. Identical values can stand only once.
